Data taken from PubChem BioAssay AID504834 (National Center for Advancing Translational Sciences (NCATS), 2011).
About 22,000 (6.9%) of roughly 320,000 compounds were called active. This list was built around the results that the source calls inconclusive (neither active nor inactive); the mix of calls is not that of the screen. Calls follow the shape of the dose curve; as a rule, active = well fitted inhibition curve with a large enough effect; inconclusive = small, poorly fitted or top-dose-only effect, or another doubt; inactive = no such curve, though single readings can be large or run the other way. Where the call is inconclusive, the potency comes from a doubtful curve fit.

Assay: Primary qHTS for delayed death inhibitors of the malarial parasite plastid, 96 hour incubation
Conditions: P. falciparum luciferase reporter growth; series mostly up to 28.7 µM; activity change, negative = inhibition: at the top concentration
In short: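 P. falciparum expressing integrated firefly luciferase, in erythrocytes at 2% hematocrit, 0.05% parasitemia, incubated with compounds 96 h at 37 C, 5% CO2. Growth inhibition read as loss of luminescence; two-generation exposure targets delayed-death apicoplast inhibitors.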
% is scaled to controls: 0 for no effect and ±100 for the full control effect; potency is read from the fitted curve at half-maximal effect.

Structure (SMILES)	Potency	activity change, negative = inhibition
CC(C)(C)C(=O)NCc1ccc(C(=O)CN2C(=O)NC3(CCCC3)C2=O)s1	inconclusive: 2.62 µM [inhibitor, full curve]	
Nc1nc(SCc2ccc([N+](=O)[O-])cc2)nc2nc3c(cc12)CCCC3	active: 1.47 µM	
CCOC(=O)c1c(S(=O)(=O)NCC(=O)N2CCN(c3ccccc3)CC2)c(C)n(C)c1C		inactive: 21.8%
Cc1ccccc1N(CC(=O)NCCSCc1ccccc1)S(C)(=O)=O	active: 11.7 µM	
COc1cccc(Cn2nnc(C(=O)Nc3cc(Cl)ccc3OC)c2N)c1	inconclusive: 18.5 µM [inhibitor, partial curve, poor fit]	
COc1cccc(C(=O)NCC2CCN(c3ccc(S(=O)(=O)N4CCOCC4)cc3)CC2)c1	active: 5.22 µM	
O=C(CN(c1ccc([N+](=O)[O-])cc1)S(=O)(=O)c1ccccc1)N1CCCCC1	inconclusive: 11.7 µM [inhibitor, partial curve, poor fit]	
CCc1nc(SCC(=O)Nc2nnc(CC)s2)c2c(=O)n(C)c(=O)n(C)c2n1		inactive: -21.3%
O=C(CCNS(=O)(=O)c1ccc(Br)s1)NC1CCCC1	active: 10.4 µM	
Nc1nc(Br)c2c(F)cccc2c1-c1ccc(Cl)cc1	active: 13.1 µM	
Cc1csc(NC(=O)c2ccc3ccccc3n2)n1		inactive: 131%
CSc1nnc(NC(=O)c2nc(S(=O)(=O)Cc3ccccc3F)ncc2Cl)s1	inconclusive: 18.5 µM [inhibitor, single point]	
N#C/C(=C\c1ccc(OCC(N)=O)cc1)S(=O)(=O)c1ccccc1		inactive: 22.7%
CCCCCCCC1c2c(c(C)c(C)oc2=O)Oc2c(C)c(C)oc(=O)c21	inconclusive: 14.7 µM [inhibitor, single point]	
CC(C)c1ccc(NC(=O)Cn2c(=O)oc3cccnc32)cc1	inconclusive: 0.104 µM [inhibitor, partial curve, poor fit]	
CC(C)c1ccc(NC2CCCN(C(=O)CCN3CCCCC3=O)C2)cc1 (stereo not given)	inconclusive: 11.7 µM [inhibitor, single point]	
CC(C)COc1ccc(C(=O)N/N=C/c2ccoc2)cc1	active: 5.86 µM	
CCOC(=O)Cn1nnnc1CN(CCc1ccccc1)Cc1cc2cc(CC)ccc2[nH]c1=O	inconclusive: 18.5 µM [inhibitor, single point]	
Cc1ccc(-c2cc(C(F)(F)F)c(C#N)c(=O)[nH]2)cc1		inactive: -3.45%
O=C(O)CCCN1C(=O)/C(=C\C(Cl)=C\c2ccccc2)SC1=S	inconclusive: 9.28 µM [inhibitor, partial curve, poor fit]	
CC(C)CC(C(=O)N1CCc2ccccc2C1)N1C(=O)c2ccccc2C1=O (stereo not given)	inconclusive: 18.5 µM [inhibitor, single point]	
COc1ccc(S(=O)(=O)NCC(=O)NC2CC2)cc1OC	inconclusive: 5.86 µM [inhibitor, partial curve]	
CN(C)c1ccc(C(C(=O)NC2CCCC2)N(C(=O)c2ccco2)C2CC2)cc1 (stereo not given)		inactive: 0%

Structure (SMILES)	Potency	activity change, negative = inhibition
CC(=O)c1ccc(N2CCN(C(=O)CCCc3nc4ccccc4s3)CC2)cc1	inconclusive: 10.4 µM [inhibitor, partial curve, poor fit]	
COc1ccccc1CN1CC(C(=O)N(C)CCOc2ccccc2)CCC1=O (stereo not given)	inconclusive: 11.7 µM [inhibitor, single point]	
COc1cccc(CNC(=O)C(C(=O)NCc2cccc(OC)c2)c2ncc(C(F)(F)F)cc2Cl)c1	inconclusive: 0.415 µM [inhibitor, partial curve, poor fit]	
CCOC(=O)N1CCN(c2cc(N3CCN(CC)CC3)c(F)cc2[N+](=O)[O-])CC1C (stereo not given)	inconclusive: 9.28 µM [inhibitor, partial curve]	
CSCCC(=O)Nc1ccc(C(C)=O)cc1		inactive: 104%
N#C/C(C(=O)Nc1ccc(Cl)cc1)=C(/S)Nc1ccccc1	inconclusive: 18.5 µM [inhibitor, single point]	
O=C(NCCc1ccc(F)cc1)C1CCN(C(=O)Nc2ccccc2)CC1	inconclusive: 14.7 µM [inhibitor, single point]	
CC(Nc1nc(-c2ccncc2)nc2ccccc12)c1ccccc1 (stereo not given)	active: 4.65 µM	
O=c1[nH]nc(Cc2ccc(-c3ccccc3Cl)o2)c2ccccc12	inconclusive: 10.4 µM [inhibitor, single point]	
CC1(C)N=C(SCC(=O)Nc2ccccc2)C(c2ccc(Cl)cc2)=N1	inconclusive: 3.29 µM [inhibitor, partial curve, poor fit]	
Cc1c(N=C/C=C2\N(C)c3ccccc3C2(C)C)c(=O)n(-c2ccccc2)n1C	active: 4.15 µM	
Cc1ccc(N2NC(C)(c3cccs3)NC2=S)cc1 (stereo not given)	inconclusive: 13.1 µM [inhibitor, single point]	
CC(=O)NNc1nc(-c2ccc(C)cc2)cs1		inactive: -2.91%
CCCn1c(OC)nc2c1c(=O)n(C)c(=O)n2C	inconclusive: 18.5 µM [inhibitor, single point]	
CCOC(=O)N1CCN(S(=O)(=O)N2CCCC(C(=O)NCCCN3CCC(C)CC3)C2)CC1 (stereo not given)		inactive: 23.7%
CCN(CC)CCCCCCCCOC(=O)c1cc(OC)c(OC)c(OC)c1	active: 10.4 µM	
c1ccc(-c2nc(C3CCCCC3)no2)cc1		inactive: 64.8%
CC(NC(=O)c1ccncc1)c1ccccc1 (stereo not given)	inconclusive: 11.7 µM [inhibitor, single point]	
Cc1ccc(C)c2[nH]c(=O)c(CN(Cc3nnnn3C3CCCCC3)CC3CCCO3)cc12 (stereo not given)	inconclusive: 0.465 µM [inhibitor, partial curve, poor fit]	
CN(C)S(=O)(=O)c1ccc(Cl)c(NC(=O)CN2C(=O)NC(C)(C3CC3)C2=O)c1 (stereo not given)	inconclusive: 18.5 µM [inhibitor, single point]	
Cc1ccc(-c2nc(N/N=C/c3ccncc3)c3ccccc3n2)cc1	inconclusive: 2.62 µM [inhibitor, single point]	
Cc1ccc2c(c1)C(c1ccccc1)N(C(=O)c1ccc3c(c1)OCO3)CC(=O)N2 (stereo not given)	inconclusive: 13.1 µM [inhibitor, partial curve]	

Record cards, as listed above.
`CCN(CC)CCCCCCCCOC(=O)c1cc(OC)c(OC)c(OC)c1` as listed: Potency: active: 10.4 µM
`Cc1ccc2c(c1)C(c1ccccc1)N(C(=O)c1ccc3c(c1)OCO3)CC(=O)N2` (stereo not given) as listed: Potency: inconclusive: 13.1 µM [inhibitor, partial curve]
`Cc1c(N=C/C=C2\N(C)c3ccccc3C2(C)C)c(=O)n(-c2ccccc2)n1C` as listed: Potency: active: 4.15 µM
